Measured values as given in paper PMC12357052.
Results are given in words; binding and its absence hold for the method and conditions named. Binding seen in cells or lysates may run through a third protein. Some results given as binding are weak or reduced against the parent protein; the word gives no strength.

By UniProt entry, the sequences of proteins in these tests, tags left out.
UniProt O43516: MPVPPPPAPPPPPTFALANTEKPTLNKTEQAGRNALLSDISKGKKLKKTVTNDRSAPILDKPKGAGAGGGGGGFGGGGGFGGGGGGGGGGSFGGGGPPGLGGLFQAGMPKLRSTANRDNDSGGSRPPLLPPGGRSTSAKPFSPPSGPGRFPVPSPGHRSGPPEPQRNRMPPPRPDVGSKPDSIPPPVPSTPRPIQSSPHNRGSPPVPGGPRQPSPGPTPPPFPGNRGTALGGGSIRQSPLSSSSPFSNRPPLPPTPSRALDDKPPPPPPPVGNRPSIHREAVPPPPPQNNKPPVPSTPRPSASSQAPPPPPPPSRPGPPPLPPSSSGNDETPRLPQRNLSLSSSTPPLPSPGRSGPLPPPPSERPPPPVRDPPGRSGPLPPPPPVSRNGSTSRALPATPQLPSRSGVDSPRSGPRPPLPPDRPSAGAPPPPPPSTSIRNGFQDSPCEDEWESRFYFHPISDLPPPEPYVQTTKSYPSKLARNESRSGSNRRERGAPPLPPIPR
UniProt O43707: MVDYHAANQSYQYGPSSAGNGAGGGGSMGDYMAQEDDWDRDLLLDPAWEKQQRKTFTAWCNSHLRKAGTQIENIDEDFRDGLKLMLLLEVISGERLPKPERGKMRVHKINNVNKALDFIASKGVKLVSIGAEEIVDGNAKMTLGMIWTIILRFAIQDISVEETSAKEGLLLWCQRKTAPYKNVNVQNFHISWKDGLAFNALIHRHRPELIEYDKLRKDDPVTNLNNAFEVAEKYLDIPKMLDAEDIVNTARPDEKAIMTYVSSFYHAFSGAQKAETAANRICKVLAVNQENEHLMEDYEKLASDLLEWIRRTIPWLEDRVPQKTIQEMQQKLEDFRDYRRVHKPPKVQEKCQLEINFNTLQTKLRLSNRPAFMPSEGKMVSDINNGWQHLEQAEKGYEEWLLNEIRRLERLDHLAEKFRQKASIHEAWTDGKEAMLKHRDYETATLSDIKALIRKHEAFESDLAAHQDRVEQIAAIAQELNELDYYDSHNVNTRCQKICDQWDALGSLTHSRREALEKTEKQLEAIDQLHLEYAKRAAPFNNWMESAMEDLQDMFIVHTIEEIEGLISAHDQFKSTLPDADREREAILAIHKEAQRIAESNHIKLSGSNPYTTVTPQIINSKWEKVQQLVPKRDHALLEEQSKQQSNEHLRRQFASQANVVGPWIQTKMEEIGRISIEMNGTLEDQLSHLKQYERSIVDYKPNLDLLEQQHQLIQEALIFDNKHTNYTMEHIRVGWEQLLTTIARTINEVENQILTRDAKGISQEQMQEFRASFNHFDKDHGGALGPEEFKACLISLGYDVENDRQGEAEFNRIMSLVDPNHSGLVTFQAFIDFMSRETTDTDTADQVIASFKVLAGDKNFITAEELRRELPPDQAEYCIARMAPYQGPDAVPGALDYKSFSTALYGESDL

Target: WAS/WASL interacting protein family member 1 (WIPF1), wild type, overexpressed (WIPF1-OE) (human) (UniProt O43516)
Assay: co-IP; Lysate of HTR-8/SVneo cells overexpressing WIPF1 (WT or point mutant); IP with rabbit WIPF1 mAb at 4 °C overnight, protein A/G beads; blot with mouse ACTN4 mAb; rabbit or mouse IgG as negative control

- binding: binds
Substance: alpha-actinin 4 (ACTN4) (from UniProt O43707 1-911)
